Taken from: PubChem BioAssay AID1259405 (NCATS, 2018)

Test: 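Silenced genes that increase secreted GFP made by CHO cells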 (primary screen)
Cells: Chinese hamster CHO-K1 ovary cells with stable secreted eGFP expression
Reagents: single siRNA against mouse genes, 0.8 pmol siRNA per well (2 µl of 400 nM stock)
Time to read-out: 3 days
Read-out: 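Percent of the per-plate non-targeting control median for intracellular GFP per well by laser scanning cytometry and for cell viability by ATP luminescence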
Reading the numbers: GFP, % of control: higher = more GFP per well, higher productivity; viability (ATP), % of control: higher = more viable cells (more ATP)
Hit rule: 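Called active when intracellular GFP, relative to negative control, is at or above 120%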
The deposit covers about 50,000 reagents; this is an unselected part. About 4,000 of all reagents (8%) were called active. 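Mouse siRNA library applied to hamster cells; one well for each siRNA.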

no.	target	PubChem SID	GFP, % of control	viability (ATP), % of control	outcome
1	Or9i14 (olfactory receptor family 9 subfamily I member 14)	SID363544654	108	65.1	inactive
2	Or9i14 (olfactory receptor family 9 subfamily I member 14)	SID363550982	83.6	92.2	inactive
3	Or9i14 (olfactory receptor family 9 subfamily I member 14)	SID363557531	57.3	53.4	inactive
4	Or8k22 (olfactory receptor family 8 subfamily K member 22)	SID363554292	105	78.9	inactive
5	Or8k22 (olfactory receptor family 8 subfamily K member 22)	SID363567739	65.4	68.3	inactive
6	Or8k22 (olfactory receptor family 8 subfamily K member 22)	SID363585096	93.5	103	inactive
7	Arhgef19 (Rho guanine nucleotide exchange factor 19)	SID363546827	45.3	68.8	inactive
8	Arhgef19 (Rho guanine nucleotide exchange factor 19)	SID363548583	60.6	84.8	inactive
9	Arhgef19 (Rho guanine nucleotide exchange factor 19)	SID363560761	42.7	33.2	inactive
10	Rimoc1 (RAB7A interacting MON1-CCZ1 complex subunit 1)	SID363546570	51.5	65.6	inactive
11	Rimoc1 (RAB7A interacting MON1-CCZ1 complex subunit 1)	SID363548326	56	61.4	inactive
12	Rimoc1 (RAB7A interacting MON1-CCZ1 complex subunit 1)	SID363560504	73.1	68.3	inactive
13	Gal3st1 (galactose-3-O-sulfotransferase 1)	SID363581855	55.7	90.3	inactive
14	Gal3st1 (galactose-3-O-sulfotransferase 1)	SID363589349	105	76.4	inactive
15	Ptcd1 (pentatricopeptide repeat domain 1)	SID363546004	120	100	inactive
16	Ptcd1 (pentatricopeptide repeat domain 1)	SID363549517	64.8	87.1	inactive
17	Ptcd1 (pentatricopeptide repeat domain 1)	SID363563323	84	65.9	inactive
18	Lmbrd2 (LMBR1 domain containing 2)	SID363542826	150	100	active
19	Lmbrd2 (LMBR1 domain containing 2)	SID363546343	81.1	77.4	inactive
20	Lmbrd2 (LMBR1 domain containing 2)	SID363548099	88.4	85.3	inactive

Looked up above:
Result for Rimoc1 (RAB7A interacting MON1-CCZ1 complex subunit 1) [SID363548326] in “viability (ATP), % of control”: 61.4
Under “outcome”, Or9i14 (olfactory receptor family 9 subfamily I member 14) [SID363557531] has inactive
Under “outcome”, Or9i14 (olfactory receptor family 9 subfamily I member 14) [SID363550982] shows inactive

Further results follow.
no.	target	PubChem SID	GFP, % of control	viability (ATP), % of control	outcome
21	Dele1 (DAP3 binding cell death enhancer 1)	SID363540807	140	123	active
22	Dele1 (DAP3 binding cell death enhancer 1)	SID363543258	56.8	60.7	inactive
23	Dele1 (DAP3 binding cell death enhancer 1)	SID363552751	104	57.1	inactive
24	Zranb1 (zinc finger, RAN-binding domain containing 1)	SID363572885	99.6	105	inactive
25	Zranb1 (zinc finger, RAN-binding domain containing 1)	SID363577461	73.8	83	inactive
26	Zranb1 (zinc finger, RAN-binding domain containing 1)	SID363580981	89.9	85.7	inactive
27	Slc35g3	SID363546604	44.3	34.9	inactive
28	Slc35g3	SID363548360	72.4	80.6	inactive
29	Slc35g3	SID363560538	115	127	inactive
30	Mtres1 (mitochondrial transcription rescue factor 1)	SID363540669	87.1	74.6	inactive
31	Mtres1 (mitochondrial transcription rescue factor 1)	SID363543120	73.4	64	inactive
32	Mtres1 (mitochondrial transcription rescue factor 1)	SID363552613	81.2	55.4	inactive
33	Aurkc (aurora kinase C)	SID363547364	97.1	127	inactive
34	Aurkc (aurora kinase C)	SID363558133	159	121	active
35	Aurkc (aurora kinase C)	SID363559891	90.6	67.1	inactive
